According to article doi:10.1101/2020.05.24.113076:
No constants are given. Whether binding was seen depends on the method and setting. Binding seen in cells or lysates may run through a third protein. Some binding calls cover weakened binding; strength is not graded here.

Chains of the proteins cited; added tags and fusions are not shown.
UniProt Q9QVP9: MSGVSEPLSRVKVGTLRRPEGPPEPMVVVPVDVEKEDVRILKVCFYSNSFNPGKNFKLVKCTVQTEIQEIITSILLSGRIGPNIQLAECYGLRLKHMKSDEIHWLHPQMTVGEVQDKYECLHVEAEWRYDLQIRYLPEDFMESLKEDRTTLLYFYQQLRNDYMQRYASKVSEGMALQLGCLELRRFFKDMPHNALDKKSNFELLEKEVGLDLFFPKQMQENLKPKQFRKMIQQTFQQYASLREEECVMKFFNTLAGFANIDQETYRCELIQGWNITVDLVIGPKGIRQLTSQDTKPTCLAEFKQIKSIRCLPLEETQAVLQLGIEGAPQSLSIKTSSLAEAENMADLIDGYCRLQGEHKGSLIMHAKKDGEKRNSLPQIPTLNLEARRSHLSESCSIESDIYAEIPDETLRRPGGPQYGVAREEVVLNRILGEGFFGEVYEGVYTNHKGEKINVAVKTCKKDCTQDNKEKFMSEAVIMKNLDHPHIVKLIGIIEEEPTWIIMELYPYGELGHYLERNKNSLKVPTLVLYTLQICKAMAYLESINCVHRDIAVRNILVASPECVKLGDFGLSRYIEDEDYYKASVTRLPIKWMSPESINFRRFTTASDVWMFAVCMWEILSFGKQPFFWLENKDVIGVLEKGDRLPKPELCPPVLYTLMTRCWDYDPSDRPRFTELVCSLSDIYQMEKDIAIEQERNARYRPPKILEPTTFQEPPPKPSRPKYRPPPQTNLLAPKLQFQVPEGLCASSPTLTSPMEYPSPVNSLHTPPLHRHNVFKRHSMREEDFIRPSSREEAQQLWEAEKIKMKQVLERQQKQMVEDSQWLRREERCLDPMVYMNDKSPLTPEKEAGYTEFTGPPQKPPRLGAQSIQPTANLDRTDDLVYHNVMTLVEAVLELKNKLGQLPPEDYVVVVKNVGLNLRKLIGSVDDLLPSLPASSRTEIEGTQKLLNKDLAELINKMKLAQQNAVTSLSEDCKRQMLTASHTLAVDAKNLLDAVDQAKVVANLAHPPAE
UniProt P56477: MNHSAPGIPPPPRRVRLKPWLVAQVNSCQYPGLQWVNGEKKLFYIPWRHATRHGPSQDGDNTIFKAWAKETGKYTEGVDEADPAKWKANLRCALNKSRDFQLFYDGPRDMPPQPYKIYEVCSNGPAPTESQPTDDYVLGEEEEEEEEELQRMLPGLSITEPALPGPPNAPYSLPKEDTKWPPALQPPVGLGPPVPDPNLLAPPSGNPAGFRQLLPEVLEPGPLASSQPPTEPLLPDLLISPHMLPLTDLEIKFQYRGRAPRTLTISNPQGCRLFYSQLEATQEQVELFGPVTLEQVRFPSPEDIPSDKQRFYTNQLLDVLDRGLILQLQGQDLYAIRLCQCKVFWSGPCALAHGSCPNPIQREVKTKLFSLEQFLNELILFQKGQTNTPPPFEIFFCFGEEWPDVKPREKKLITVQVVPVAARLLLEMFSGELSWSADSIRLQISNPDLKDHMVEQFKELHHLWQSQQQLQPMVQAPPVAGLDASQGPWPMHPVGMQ

Target: PYK2, endogenous in RAW264.7 macrophages (mouse (endogenous in RAW264.7)) (UniProt Q9QVP9)
Test: co-IP

## IRF5, endogenous in RAW264.7 macrophages (from UniProt P56477 1-497)
  binding: binds
